From PubChem BioAssay AID2685 (National Center for Advancing Translational Sciences (NCATS), 2010) come the findings set out here.

This experiment can be described thus: qHTS Assay for Lipid Storage Modulators in Drosophila S3 Cells.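 As to cell number change: cells counted by Cell Tracker Red CMTPX staining in the red channel.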 To be noted: BODIPY lipid droplet fluorescence, 18-24 h; for cell number change: measured here: cell count max response, cells fed with added oleic acid. In short, it runs like this: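 Drosophila S3 cells got compounds at several concentrations plus oleic acid (400 uM solution). Laser-scanning cytometry with 488 nm excitation read lipid droplets at 500-530 nm and cells at 575-640 nm. Percent activity was relative to 20 uM Triacsin C.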
(Quantitative high-throughput screening tests each substance at several concentrations.)

Where [1] appears, read: measured here: lipid fluorescence (Fed channel) AC50, cells fed with added oleic acid.
Setting [2] is: measured here: cell number channel AC50, cells fed with added oleic acid.

The list shows a part of the results. These are further read-outs of the screen, such as a control signal, another cell line or another target. No call is given for them. The list favours compounds with an active or inconclusive main result. The note in brackets gives the kind of curve behind each potency; many fits are weak.

By AC50 is commonly meant the concentration giving half of the maximal activity seen. Take `O=[N+]([O-])c1cc(S(=O)(=O)N2CCCCC2)ccc1NCCCN1CCOCC1`: the cell number change is -1.14%. Under setting [1], the AC50 is 0.0411 µM [rising, single point]. Consider `CC(=O)c1ccc(OCCCC(=O)NCC(c2ccco2)N(C)C)cc1` (configuration not stated), for which the cell number change was 1.6%. Regarding `CCc1ccc(C2C(C#N)=C(N)N(N(C)C)C3=C2C(=O)CCC3)s1` (configuration not stated), the cell number change came out at 11.8%. Further, the AC50 under setting [1] is 13 µM [rising, partial curve, poor fit]. For the molecule `O=C1NC2(CCCCCC2)C(=O)N1Cc1ccccc1Cl`, the cell number change worked out at 24.3%. The AC50 under setting [2] is 6.51 µM [rising, single point]. As for `Cc1cccc(C2c3[nH]c4ccccc4c3CCN2C(=O)c2cn(C)c3ccccc3c2=O)n1` (configuration not stated), the cell number change was -4.62%. Further, the AC50 under setting [1] is 0.82 µM [falling, full curve, poor fit]. On to `CSC1=C(C#N)C(c2ccc(C)cc2)C2=C(CCCC2=O)N1` (configuration not stated), for which the AC50 under setting [2] was 6.51 µM [rising, partial curve, poor fit]. With `O=C(NCCN1CCOCC1)c1cc(-c2ccccc2)on1`, the cell number change amounted to 9.06%. Besides, the AC50 under setting [1] is 0.651 µM [falling, single point]. As to `O=C(O)CCC(NS(=O)(=O)c1ccc(-c2ccccc2)cc1)C(=O)O` (configuration not stated), the cell number change came out at 9.25%.

In the case of `O=C(O)CNc1nc(-c2ccccc2)c2cc([N+](=O)[O-])ccc2n1`, the cell number change is -21.2%. Also, the AC50 under setting [1] is 0.259 µM [falling, partial curve, poor fit]. Consider `Cc1cc(C)n(Cc2cnc(N3CCOCC3)s2)n1`, for which the cell number change is 29.9%. Regarding `CCOc1ccccc1N1CC(C(=O)N2CCc3ccccc3C2)CC1=O` (configuration not stated), the cell number change was 12.8%. The concentration at half-maximal activity (AC50) under setting [1] was 29.1 µM [rising, single point]. Take `C=CCOC(=O)c1ccc(N2CCN(c3ccccc3)CC2)nc1`: the cell number change was 11.8%. Also, the AC50 under setting [1] is 5.8 µM [rising, single point]. Take `COc1cc(C(=O)NC(=S)Nc2csc(-c3ccc(F)cc3)n2)cc(OC)c1OC`: the cell number change came out at 0.673%. For the same molecule, the AC50 under setting [1] is 6.51 µM [falling, partial curve, poor fit].

In the case of `CCOC(=O)c1c(Nc2nc(C)c(C(=O)NC)s2)sc(C)c1C`, the AC50 under setting [1] is 6.51 µM [rising, single point]. As for `Cc1cccc(-c2nc(Nc3ccc(N4CCOCC4)cc3)c3ccccc3n2)c1`, the cell number change worked out at 13.1%. In addition, the AC50 under setting [1] was 2.31 µM [rising, partial curve]. `Cc1cc(C)n(-c2ncc(-c3ccccc3)nn2)n1`: the cell number change came to 118%. Further, the half-maximal activity concentration (AC50) under setting [2] is 2.06 µM [rising, full curve]. The AC50 under setting [1] was 0.651 µM [rising, single point]. Take `O=C(COC(=O)CCN1C(=O)C2CC=CCC2C1=O)NCCc1ccc(F)cc1` (configuration not stated): the cell number change is 2.96%. Also, under setting [1], the AC50 is 29.1 µM [rising, single point]. On to `Cc1cccc(-n2c(N)cc(=O)[nH]c2=S)c1`, for which the cell number change is 3.22%. Also, the AC50 under setting [1] is 0.259 µM [falling, full curve, poor fit]. For `Cc1cc([N+](=O)[O-])ccc1NC(=S)NC(=O)C(c1ccccc1)c1ccccc1`, the cell number change was determined as 8.43%. Besides, the AC50 under setting [2] was 0.146 µM [rising, full curve]. In the case of `CCn1c(Sc2ccc([N+](=O)[O-])cn2)nnc1-c1ccco1`, the cell number change was -11.5%. Besides, the AC50 under setting [1] was 4.11 µM [falling, single point]. For the molecule `COC(=O)[C@@]12CCCCN1[C@H](c1ccc(SC3CCCCC3)cc1)[C@@H]1C(=O)N(C)C(=O)[C@@H]12`, the cell number change is -11.7%. The AC50 under setting [1] is 3.66 µM [falling, single point]. Turning to `Cc1ccc(-c2n[nH]c(=O)c3ccccc23)cc1S(=O)(=O)NCCN1CCOCC1`, the cell number change was -10.6%.

Take `O=C1C(=O)N(CCN2CCOCC2)C(c2ccc(F)cc2)/C1=C(/O)c1ccc(S(=O)(=O)N2CCOCC2)cc1` (configuration not stated): the cell number change is -1.26%. Further, the concentration at half-maximal activity (AC50) under setting [1] was 29.1 µM [rising, single point]. As for `CC(=O)N(CN1C(=O)CCC1=O)c1cccc(Cl)c1`, the cell number change was -85.6%. Also, the concentration at half-maximal activity (AC50) under setting [2] was 20.6 µM [falling, partial curve]. Further, under setting [1], the AC50 is 1.46 µM [falling, full curve]. On to `CC1Sc2ccc(S(=O)(=O)CCC(=O)NCc3cccs3)cc2NC1=O` (configuration not stated), for which the cell number change was -4.72%. `N#CC1(NC(=O)COC(=O)c2ccc(Cl)nc2)CCCCC1`: the cell number change is -50%. The AC50 under setting [2] is 3.66 µM [falling, full curve]. Also, under setting [1], the AC50 was 29.1 µM [rising, single point]. As to `CCn1cc(CN2CCc3c([nH]c4ccccc34)C2c2cccc(O)c2)c(C)n1` (configuration not stated), the cell number change is -3.65%. Also, under setting [1], the concentration at half-maximal activity (AC50) is 4.11 µM [falling, full curve, poor fit]. As for `COc1ccccc1NS(=O)(=O)c1ccc(/C=C/C(=O)O)cc1`, the cell number change is -1.76%. In addition, under setting [1], the AC50 is 0.082 µM [falling, full curve, poor fit]. As to `C/C(=C\c1ccccc1)C(=O)NCCCn1ccnc1`, the cell number change was determined as 49.5%. In addition, under setting [2], the AC50 is 0.116 µM [rising, full curve, poor fit]. Regarding `CC1(C)CC(=O)C(N=Nc2cccc([N+](=O)[O-])c2)=C(O)C1`, the cell number change was -22.8%. For the same molecule, the AC50 under setting [1] is 5.8 µM [falling, full curve, poor fit]. Consider `CCC(CC)C(=O)Nc1nnc(SCC(=O)NC2CC2)s1`, for which the cell number change was determined as 3.33%.

As to `CC(C)NS(=O)(=O)c1ccc(NC(=O)Cc2ccsc2)cc1`, the cell number change came out at 4.6%.

As to `COC(=O)c1cc(S(=O)(=O)NCc2ccccc2)c[nH]1`, the cell number change was determined as 18.9%. The concentration at half-maximal activity (AC50) under setting [1] was 3.26 µM [rising, single point].

As for `CCOc1ccccc1-n1c(CN2CCN(C(=O)c3ccco3)CC2)nc2ccccc2c1=O`, the cell number change was 2.26%. Also, under setting [1], the half-maximal activity concentration (AC50) is 0.82 µM [rising, partial curve]. As to `c1ccc(Cn2c(-c3ccccc3)c[n+]3c2SCCC3)cc1`, the cell number change was 12.5%. For `CC(=O)c1c(C)[nH]c(C(=O)Nc2cc(F)ccc2C)c1C`, the cell number change is -4.84%.

`COc1ccc(CCn2c(=O)[nH]c3cc(C(=O)NCCc4ccccc4)ccc3c2=O)cc1OC`: the cell number change was determined as 16.3%. For the same molecule, the AC50 under setting [1] is 0.461 µM [falling, full curve, poor fit]. For `COc1cccc(C(=O)Oc2ccc3c(C)cc(=O)oc3c2C(C)=O)c1`, the cell number change was determined as 2.85%. As to `CCN(C(=O)Cn1cnc2c1c(=O)n(C)c(=O)n2C)C1CCS(=O)(=O)C1` (configuration not stated), the cell number change was 9.37%.

Turning to `N#CCN(CC#N)C(=O)C1c2ccccc2Oc2ccccc21`, the cell number change amounted to 1.38%. On to `O=C1CCN(C(=O)Nc2ccccc2Cl)N1`, for which the cell number change was -26.1%. Under setting [1], the concentration at half-maximal activity (AC50) was 20.6 µM [falling, single point]. `Cc1cccc(CSCc2ccc(C(=O)NCC3CCCO3)o2)c1` (configuration not stated): the cell number change was -22.5%. The half-maximal activity concentration (AC50) under setting [1] was 4.11 µM [rising, single point]. For the molecule `O=C(c1cc(COc2ccc(F)cc2F)on1)N1CCN(C2CCCC2)C(=O)C1`, the cell number change was found to be 27.2%. Under setting [1], the AC50 was 2.91 µM [rising, full curve]. Turning to `Cc1ccc(C(=O)O)cc1NC(=O)CSc1ncnc2sc3c(c12)CCC3`, the cell number change is 9.64%. For the same molecule, under setting [1], the half-maximal activity concentration (AC50) was 0.58 µM [falling, full curve]. With `CCOC(=O)N1CCN(C(=O)c2ccc3c(=O)n(-c4cc(OC)ccc4OC)c(=S)[nH]c3c2)CC1`, the cell number change was 3.09%. For the same molecule, the concentration at half-maximal activity (AC50) under setting [1] was 2.59 µM [rising, single point]. For the molecule `O=C(NCC1COc2ccccc2O1)c1cn(Cc2ccc(F)cc2)nn1` (configuration not stated), the cell number change worked out at 35.2%. The AC50 under setting [2] is 29.1 µM [rising, single point]. For the same molecule, under setting [1], the half-maximal activity concentration (AC50) was 29.1 µM [rising, single point]. Consider `O=C(CN(c1cccc(C(F)(F)F)c1)S(=O)(=O)c1ccc(Cl)c([N+](=O)[O-])c1)NCc1ccc(F)cc1`, for which the cell number change came to 16.7%. Moreover, the AC50 under setting [1] was 32.6 µM [falling, single point]. For the molecule `Cc1ccc(S(=O)(=O)N2CCCCC2)cc1NC(=O)c1ccc2c(=O)n3c(nc2c1)CCCCC3`, the cell number change is 28.9%. Besides, the concentration at half-maximal activity (AC50) under setting [1] was 1.84 µM [rising, partial curve]. Consider `COc1ccc(CN2CCNC(=O)C2CC(=O)N(C)CCC2CCOCC2)cc1OC` (configuration not stated), for which the cell number change was 13%. The same measure, in the same setting: with `O=C(Nc1ccccc1N1CCCC1)C1=COCCO1` the figure was -0.55%.

As for `CCOC(=O)C1CCN(C(=O)CN2C(=O)c3ccccc3S2(=O)=O)CC1`, the cell number change was -56.6%. Moreover, under setting [2], the AC50 was 25.9 µM [falling, single point]. As for `COC(=O)c1cccc(C(=O)Nc2ccc(C)cc2Br)n1`, the cell number change worked out at 54.3%. The AC50 under setting [2] is 20.6 µM [rising, single point]. Moreover, under setting [1], the AC50 is 29.1 µM [rising, single point]. For the molecule `Cc1cc(C)c2c(=O)n(CC(=O)N3CCC(Cc4ccccc4)CC3)sc2n1`, the cell number change is -21.3%. In addition, under setting [1], the AC50 is 11.6 µM [falling, partial curve]. `Fc1cccc(NCc2ccoc2)c1`: the cell number change is -1.57%. In addition, under setting [1], the AC50 was 0.00517 µM [falling, full curve, poor fit].

Consider `CCCCOC(=O)C1C2C=C[C@]3(CN(C(C)c4ccc(OC)cc4)C(=O)[C@H]13)O2` (some centres not stated), for which the cell number change was -56.3%. For the same molecule, under setting [2], the AC50 is 29.1 µM [falling, single point]. For the same molecule, the AC50 under setting [1] was 3.66 µM [falling, full curve, poor fit]. For the molecule `CCC(C)Sc1nnc(CSc2nc3nc(C)cc(C)n3n2)o1` (configuration not stated), the cell number change is -6.84%. The AC50 under setting [2] was 6.51 µM [rising, single point]. Take `Cc1cccc2cc3c(nc12)SC(=NCC1CCCO1)N(Cc1ccco1)C3` (configuration not stated): the cell number change is -22.1%. Further, the AC50 under setting [1] was 11.6 µM [falling, partial curve]. Regarding `Nc1c(S(=O)(=O)c2cccs2)c2nc3ccccc3nc2n1/N=C/c1cccc(O)c1`, the cell number change was -75.4%. Further, the half-maximal activity concentration (AC50) under setting [2] is 18.4 µM [falling, single point]. For the same molecule, under setting [1], the AC50 was 29.1 µM [falling, single point]. On to `O=C(NCc1cccnc1)c1cccc(S(=O)(=O)N2CCOCC2)c1`, for which the cell number change is -5.14%.

For `O=C(NCCc1ccccc1)C1CCCN(S(=O)(=O)c2cccc3nonc23)C1` (configuration not stated), the cell number change is 54.2%. Also, under setting [2], the AC50 is 29.1 µM [rising, single point]. Besides, the AC50 under setting [1] was 29.1 µM [rising, single point]. Take `COc1ccc(-c2cc(C(F)(F)F)n3nc(N)nc3n2)cc1`: the cell number change worked out at 99.9%. Besides, the concentration at half-maximal activity (AC50) under setting [2] is 1.3 µM [rising, full curve]. Further, the AC50 under setting [1] is 1.84 µM [rising, partial curve]. In the case of `COc1ccc(C(=O)c2c3ccc([N+](=O)[O-])cc3[n+]([O-])n2CCCC(N)=O)cc1`, the cell number change was -31.9%. Further, the concentration at half-maximal activity (AC50) under setting [2] is 20.6 µM [falling, single point]. Besides, the AC50 under setting [1] is 0.0731 µM [rising, full curve, poor fit].
